Reference: patent publication US7615651B2, “Diaryl, dipyridinyl and aryl-pyridinyl derivatives and uses thereof” (Pfizer Inc., priority 2006, dated 2009)

Protein sequences, listed by entry. Tags and fused reporters are not part of them.
UniProt P41145, whole entry: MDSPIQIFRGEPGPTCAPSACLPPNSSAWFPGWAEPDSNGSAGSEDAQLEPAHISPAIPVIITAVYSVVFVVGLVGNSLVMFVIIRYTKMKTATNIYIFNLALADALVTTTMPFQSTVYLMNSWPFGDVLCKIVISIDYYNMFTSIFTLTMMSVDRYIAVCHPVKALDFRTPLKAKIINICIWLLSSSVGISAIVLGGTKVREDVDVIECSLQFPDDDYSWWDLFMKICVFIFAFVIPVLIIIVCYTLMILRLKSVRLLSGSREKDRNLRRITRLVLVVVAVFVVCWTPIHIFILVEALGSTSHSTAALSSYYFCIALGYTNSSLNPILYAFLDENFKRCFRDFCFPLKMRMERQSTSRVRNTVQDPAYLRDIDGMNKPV
UniProt P35372, whole entry: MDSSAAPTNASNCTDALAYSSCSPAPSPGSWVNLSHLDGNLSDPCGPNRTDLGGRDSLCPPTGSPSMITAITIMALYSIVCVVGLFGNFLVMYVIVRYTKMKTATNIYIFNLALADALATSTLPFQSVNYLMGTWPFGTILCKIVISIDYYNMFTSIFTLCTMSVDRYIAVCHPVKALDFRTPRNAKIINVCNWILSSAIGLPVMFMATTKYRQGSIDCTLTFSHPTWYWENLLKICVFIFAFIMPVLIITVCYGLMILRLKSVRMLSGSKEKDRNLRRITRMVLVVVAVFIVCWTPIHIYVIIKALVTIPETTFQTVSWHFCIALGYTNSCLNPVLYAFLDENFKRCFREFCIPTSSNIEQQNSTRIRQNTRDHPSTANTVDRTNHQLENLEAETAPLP
UniProt P41143, whole entry: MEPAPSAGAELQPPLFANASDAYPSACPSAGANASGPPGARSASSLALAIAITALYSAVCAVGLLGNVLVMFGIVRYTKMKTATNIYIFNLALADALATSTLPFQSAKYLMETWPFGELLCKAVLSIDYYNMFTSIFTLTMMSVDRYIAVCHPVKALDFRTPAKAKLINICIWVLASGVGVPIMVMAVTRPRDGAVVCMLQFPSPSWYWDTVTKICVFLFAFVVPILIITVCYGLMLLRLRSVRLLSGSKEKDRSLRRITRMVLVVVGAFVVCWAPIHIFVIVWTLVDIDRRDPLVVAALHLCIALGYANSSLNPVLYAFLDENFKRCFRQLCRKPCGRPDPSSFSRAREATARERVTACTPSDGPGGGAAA

What was measured:
Format in all cases: biochemical
opioid receptor kappa = opioid receptor kappa (Homo sapiens, UniProt P41145); test: GTPγ[35S] binding assay, antagonism of dynorphin-A; details: read-out: Kappa functional (GTPγ[35S] binding Ki); average Ki; antagonism of dynorphin-A (10 nM) stimulated GTPγ[35S] binding, kappa opioid receptor membranes; tested form: HCl
opioid receptor mu = opioid receptor mu (Homo sapiens, UniProt P35372); test: GTPγ[35S] binding assay, antagonism of endorphin; details: read-out: Mu functional (GTPγ[35S] binding Ki); average Ki; antagonism of endorphin (1 μM) stimulated GTPγ[35S] binding, mu opioid receptor membranes; tested form: HCl
opioid receptor delta = opioid receptor delta (Homo sapiens, UniProt P41143); test: GTPγ[35S] binding assay, antagonism of BW-373U86; details: read-out: Delta functional (GTPγ[35S] binding Ki); average Ki; antagonism of BW-373U86 (1 nM) stimulated GTPγ[35S] binding, delta opioid receptor membranes; tested form: HCl

Structure (SMILES): Cc1cc(C(N)=O)ccc1-c1ccc(CNC2Cc3ccccc3C2)cc1F
- Ki (opioid receptor kappa): 0.372 nM
- Ki (opioid receptor mu): 0.108 nM
- Ki (opioid receptor delta): 0.164 nM

The match of structure and compound is tentative.
